At least one compound was matched to its structure with a doubt left.
Test system: casein kinase 1 (CK1)
Assay: Panel of protein kinases: CK1
Format: biochemical
Details: method of Davies et al.
Procedure: The compounds of the present invention were screened against a large panel of protein kinase to determine inhibition activity for CDK as against a variety of protein kinases. The assay was conducted using methods and materials described by Davies, S et al. Specificity and Mechanism of Action of Some Commonly Used Protein Kinase Inhibitors, Biochem J. 351, 95–105 (2000), the contents of which are herein incorporated by reference. […]

CCNCc1cncc(-c2ccc3[nH]nc(-c4nc5cc(F)ccc5[nH]4)c3c2)c1C [Example 2, Ethyl-{5-[3-(5-fluoro-1H-benzoimidazol-2-yl)-1H-indazol-5-yl]-4-methyl-pyridin-3-ylmethyl}-amine]
Kinase CK1 inhibition: − (Weak inhibition <50%)

— US7008953B2, “3, 5 Disubstituted indazole compounds, pharmaceutical compositions, and methods for mediating or inhibiting cell proliferation” (Agouron Pharmaceuticals, Inc., priority 2003, dated 2006)
